The data set is described as follows: Wool growth trial: feed intake. The class given is in vivo. The note with it: sheep, defaunated period, 167 mg/kg.
Take `Cc1ccc(Nc2nc(Cl)nc(Cl)n2)cc1Cl` [Compound 27, 2,4 dichloro-6-(3 chloro-4-methylanilino)-s-triazine]: the “Feed Intake” value was 1000 g. In the case of `Clc1nc(Cl)nc(Nc2ccccc2Cl)n1` [Compound 37, 2,4-dichloro-6-(2-chloroanilino)-1,3,5-triazine] it was 982 g; in that of `Cc1ccc(Nc2nc(Cl)nc(Cl)n2)c(C)c1` [Compound 30, 2,4 dichloro-6-(2,4-dimethylanilino)-s-triazine], 1400 g.
